In paper doi:10.1101/2025.02.01.636027:
These are yes or no findings as the source states them, for the method shown. Binding seen in cells or lysates may run through a third protein. These calls come from enrichment with a bait or labelling near it, and not all partners need be listed. Sequences can lack the tags named with a protein.

Target: T1, TARANI/UBIQUITIN SPECIFIC PROTEASE-14 with a C-terminal Myc tag (RPS5a::TNI-Myc) (Arabidopsis thaliana) (UniProt Q8L6Y1)
T1 sequence: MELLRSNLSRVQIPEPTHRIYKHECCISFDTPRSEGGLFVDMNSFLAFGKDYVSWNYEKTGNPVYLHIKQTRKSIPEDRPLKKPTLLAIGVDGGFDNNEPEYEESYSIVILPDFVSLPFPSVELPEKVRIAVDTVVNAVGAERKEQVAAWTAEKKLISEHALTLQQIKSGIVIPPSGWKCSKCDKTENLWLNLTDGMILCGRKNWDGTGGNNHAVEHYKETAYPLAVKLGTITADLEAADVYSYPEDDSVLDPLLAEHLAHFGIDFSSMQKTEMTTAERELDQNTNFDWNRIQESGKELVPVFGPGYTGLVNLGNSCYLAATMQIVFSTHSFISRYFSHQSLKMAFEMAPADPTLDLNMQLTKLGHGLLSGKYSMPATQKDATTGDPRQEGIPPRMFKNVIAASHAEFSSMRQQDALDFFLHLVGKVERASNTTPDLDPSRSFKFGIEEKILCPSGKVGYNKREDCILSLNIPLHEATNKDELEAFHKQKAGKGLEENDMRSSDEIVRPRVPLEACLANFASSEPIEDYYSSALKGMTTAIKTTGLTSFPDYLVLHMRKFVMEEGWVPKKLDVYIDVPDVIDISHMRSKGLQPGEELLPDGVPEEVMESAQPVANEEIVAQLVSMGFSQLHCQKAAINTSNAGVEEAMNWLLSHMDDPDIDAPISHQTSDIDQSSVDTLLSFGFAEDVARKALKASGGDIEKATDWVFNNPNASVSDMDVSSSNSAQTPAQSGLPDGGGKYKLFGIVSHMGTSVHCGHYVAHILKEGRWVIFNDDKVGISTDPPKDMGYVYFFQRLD
Assay: affinity purification with mass spectrometry

B1: HASPIN KINASE (enzyme, UniProt O80528 1-599)
chain: MGQRVDLWSEVIKSEEEDGDIPKIEAVFQRRKKPDKSSEAVNFGWLVKGARTSSVNGPKRDSWARSLSTRGRESIAVRAYVNNQPQKKAAGRKKPPIPKGKVVKAPDFQKEKEYFRDIDAFELLEESPSPNKSSTWTMGEQVVPEMPHLSTRLEKWLISKKLNHTCGPSSTLSKILENSAIHQESVCDNDAFDSLSLKTPDKSSAGNTSVFRLIPSCDENLAAEDVPVRKIKMESIDLEDELKRLSLTSDLIPTHQDFDQPILDLLSACGQMRPSNFIEAFSKFCEPESIVKIGEGTYGEAFRAGSSVCKIVPIDGDFRVNGEVQKRADELLEEVILSWTLNQLRECETTAQNLCPTYIKTQDIKLCQGPYDPILIKAWEEWDAKHGSENDHPDFPEKQCYVMFVLEHGGKDLESFVLLNFDEARSLLVQATAGLAVAEAAFEFEHRDLHWGNILLSRNNSDTLPFILEGKQVCIKTFGVQISIIDFTLSRINTGEKILFLDLTSDPYLFKGPKGDKQSETYRKMKAVTEDYWEGSFARTNVLWLIYLVDILLTKKSFERSSKHERELRSLKKRMEKYESAKEAVSDPFFSDMLMDQIS
- binding: binds
